Results: patent US8552035B2, “Phenanthrenone compounds, compositions and methods” (Pfizer Inc., priority 2008, dated 2013)
Some results come without the dose or concentration used.

Assay: Dissociation index (side-effect biomarker ED / TNFα ED)
Format: in vivo, mouse
Conditions: for Dissociation Index BFR/TNF (ED50 dose): BFR ED50 / TNFα ED50; for Dissociation Index BFR/TNF (ED80 dose): BFR ED80 / TNFα ED80; for Corrected Dissociation Index BFR/TNF (ED50 dose) / Corrected Dissociation Index BFR/TNF (ED80 dose) / Corrected Dissociation Index Insulin/TNF (ED50 dose) / Corrected Dissociation Index Insulin/TNF (ED80 dose) / Corrected Dissociation Index OC/TNF (ED50 dose) / Corrected Dissociation Index OC/TNF (ED80 dose): compound DI divided by prednisolone DI; for Dissociation Index Insulin/TNF (ED50 dose): insulin ED50 / TNFα ED50; for Dissociation Index Insulin/TNF (ED80 dose): insulin ED80 / TNFα ED80; for Dissociation Index OC/TNF (ED50 dose): osteocalcin ED50 / TNFα ED50; for Dissociation Index OC/TNF (ED80 dose): osteocalcin ED80 / TNFα ED80
Procedure: A dissociation index (DI) was chosen as a measurement to quantify the dissociation of compounds relative to that of prednisolone in terms of biomarkers of anti-inflammatory efficacy and side-effects. Dissociation indices were calculated using clinically relevant biomarkers that could be utilized in early clinical development. Serum osteocalcin and LPS-induced serum TNFα are accepted clinically as predictive for bone formation and anti-inflammatory efficacy, respectively.
The dissociation index was based on the following tenets:
1) Dissociation required a dose-margin between biomarkers of inflammation and side-effects [such as osteocalcin (OC), insulin, or bone formation rate], and was defined by the formula, using osteocalcin suppression (OC) as the side effect example:
[formula] 2) The DI of a compound can be considered relative to that observed with prednisolone, its clinical comparator. The corrected or normalized DI was defined as compound DI divided by prednisolone DI.

Compound | Dissociation Index BFR/TNF (ED50 dose) | Dissociation Index BFR/TNF (ED80 dose) | Corrected Dissociation Index BFR/TNF (ED50 dose) | Corrected Dissociation Index BFR/TNF (ED80 dose) | Corrected Dissociation Index Insulin/TNF (ED50 dose) | Corrected Dissociation Index Insulin/TNF (ED80 dose) | Corrected Dissociation Index OC/TNF (ED50 dose) | Corrected Dissociation Index OC/TNF (ED80 dose) | Dissociation Index Insulin/TNF (ED50 dose) | Dissociation Index Insulin/TNF (ED80 dose) | Dissociation Index OC/TNF (ED50 dose) | Dissociation Index OC/TNF (ED80 dose)
C[C@@]1(O)C[C@@]2(Cc3ccccc3)c3ccc(C(=O)NCc4cccnc4)cc3CC[C@@H]2C[C@@]1(O)c1ccccc1 [Comparator D, (4bR,6R,7R,8aR)-4b-benzyl-6,7-dihydroxy-6-methyl-7-phenyl-N-(pyridin-3-ylmethyl)-4b,5,6,7,8,8a,9,10-octahydrophenanthrene-2-carboxamide] | 3.1 | >4.1 | 3.9 | >3.2 | >0.6 | >0.9 | >5.9 | >2.1 | >5.3 | >4.1 | >5.3 | >4.1
Cc1ncccc1NC(=O)c1ccc2c(c1)CC[C@@H]1C[C@@](O)(C(F)(F)F)[C@](C)(O)C[C@@]21Cc1ccccc1 [Comparator E, (4bR,6R,7S,8aR)-4b-benzyl-6,7-dihydroxy-6-methyl-N-(2-methylpyridin-3-yl)-7-(trifluoromethyl)-4b,5,6,7,8,8a,9,10-octahydrophenanthrene-2-carboxamide] | <0.3 | <0.3 | <0.4 | <0.2 |  |  | <0.9 | <0.5 |  |  | <0.8 | <1
Cc1ncccc1NC(=O)c1ccc2c(c1)C(=O)C[C@@H]1C[C@@](O)(c3ccccc3)[C@](C)(O)C[C@@]21Cc1ccccc1 [Example 1, (4bR,6R,7R,8aS)-4b-benzyl-6,7-dihydroxy-6-methyl-N-(2-methylpyridin-3-yl)-10-oxo-7-phenyl-4b,5,6,7,8,8a,9,10-octahydrophenanthrene-2-carboxamide] | 4.1 | 7.9 | 5.1 | 6.1 | 4.8 | 11.1 | 3.1 | 1.6 | 44.1 | 5.5 | 2.8 | 3.2
Cc1nc(Br)ccc1NC(=O)c1ccc2c(c1)CC[C@@H]1C[C@@](O)(c3ccccc3)[C@](C)(O)C[C@@]21Cc1ccccc1 [Comparator B, (4bR,6R,7R,8aR)-4b-benzyl-N-(6-bromo-2-methylpyridin-3-yl)-6,7-dihydroxy-6-methyl-7-phenyl-4b,5,6,7,8,8a,9,10-octahydrophenanthrene-2-carboxamide] |  |  |  |  | 1.4 | 3.5 | 2.8 | 1.1 | 12.5 | 16.8 | 2.5 | 2.2
Cc1ncccc1NC(=O)c1ccc2c(c1)CC[C@@H]1C[C@@](O)(c3ccccn3)[C@](C)(O)C[C@@]21Cc1ccccc1 [Comparator C, (4bR,6R,7R,8aR)-4b-benzyl-6,7-dihydroxy-6-methyl-N-(2-methylpyridin-3-yl)-7-(pyridin-2-yl)-4b,5,6,7,8,8a,9,10-octahydrophenanthrene-2-carboxamide] | 1.2 | 0.8 | 1.5 | 0.6 | >0.7 | >0.4 | 1.3 | >2 | >6.5 | >2 | 1.2 | >2
